# Experimental data: the supplement of paper PMC8728848
# The other results are listed elsewhere or left out.
# B1: SP15308B-bot-339-22-339 (Bacteroides ovatus) (protein)
# chain: NEWEDEQYEQYVSFKAPIASGSDGVTTIYVRYKDNGKVTYQLPIIVSGSTVNSQDRDIHIAVDKDTLKTLNIERFSLYRPELWYTEMEEDKYEFPETVHIPAGSCVELLNIDFNLQDIDMLEKWVLPLTIVDDGSYAYQSHPRKNYAKALLKVVPFNNYSGSYTASSMKVYTYINGKPDTNARTTDKRTGYVVDNNSIFFYAGLINEDMDKDMRKKYKINVHFKEDGTLDMKQDDPSNEMEFELIGTPTYSSTSVMDATRPYLERRYVQIMFEYDFQDFTYGGSGTEVIPIKYRVAGSMTLLRNINTQIPDEDQQIEW
# How the values were obtained:
# Test in all cases: glycan array binding signal (z-score within array); higher = stronger binding
# Settings in all cases: glycan notation: IUPAC condensed, linker removed
# [1] = molecular target: Gal(b1-3)GlcNAc(b1-3)Gal(b1-4)GlcNAc(b1-2)Man(a1-3)[Gal(b1-3)GlcNAc(b1-3)Gal(b1-4)GlcNAc(b1-2)Man(a1-6)]Man(b1-4)GlcNAc(b1-4)GlcNAc
# Outline: (§1)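 The binding signal is a Z-score computed within each array. Data were drawn from 3228 arrays in the Consortium for Functional Glycomics database, restricted to those with a known protein sequence. Scores were averaged over arrays of the same protein sequence at different concentrations or buffers, and over linkers, and negative values can be taken as non-binding.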
# [2] = molecular target: Gal(b1-3)GlcNAc(b1-3)Gal(b1-4)GlcNAc(b1-2)[Gal(b1-3)GlcNAc(b1-3)Gal(b1-4)GlcNAc(b1-6)]Man(a1-6)[Gal(b1-3)GlcNAc(b1-3)Gal(b1-4)GlcNAc(b1-2)Man(a1-3)]Man(b1-4)GlcNAc(b1-4)[Fuc(a1-6)]GlcNAc
# Outline: as §1
# [3] = molecular target: Gal(b1-3)GlcNAc(b1-3)Gal(b1-4)GlcNAc(b1-3)Gal(b1-4)GlcNAc(b1-2)[Gal(b1-3)GlcNAc(b1-3)Gal(b1-4)GlcNAc(b1-3)Gal(b1-4)GlcNAc(b1-6)]Man(a1-6)[Gal(b1-3)GlcNAc(b1-3)Gal(b1-4)GlcNAc(b1-3)Gal(b1-4)GlcNAc(b1-2)Man(a1-3)]Man(b1-4)GlcNAc(b1-4)[Fuc(a1-6)]GlcNAc
# Outline: as §1
# [4] = molecular target: Gal(b1-3)GlcNAc(b1-3)Gal(b1-4)GlcNAc(b1-6)[Gal(b1-3)GlcNAc(b1-3)]Gal(b1-4)Glc
# Outline: as §1
# [5] = molecular target: Gal(b1-3)GlcNAc(b1-3)Gal(b1-4)[Fuc(a1-3)]GlcNAc
# Outline: as §1
# [6] = molecular target: Gal(b1-3)GlcNAc(b1-3)Gal(b1-4)[Fuc(a1-3)]GlcNAc(b1-6)[Gal(b1-3)GlcNAc(b1-3)]Gal(b1-4)Glc
# Outline: as §1
# [7] = molecular target: Gal(b1-3)GlcNAc(b1-3)GalNAc
# Outline: as §1
# [8] = molecular target: Gal(b1-3)GlcNAc(b1-6)Gal(b1-4)GlcNAc
# Outline: as §1
# [9] = molecular target: Gal(b1-3)GlcNAc(b1-6)GalNAc
# Outline: as §1
# [10] = molecular target: Gal(b1-3)GlcNAc(b1-6)[Gal(b1-3)]GalNAc
# Outline: as §1
# Gal(b1-3)GlcNAc6S = molecular target: Gal(b1-3)GlcNAc6S
# Outline: as §1
# [11] = molecular target: Gal(b1-3)[Fuc(a1-4)]GlcNAc
# Outline: as §1
# [12] = molecular target: Gal(b1-3)[Fuc(a1-4)]GlcNAc(b1-2)Man
# Outline: as §1
# [13] = molecular target: Gal(b1-3)[Fuc(a1-4)]GlcNAc(b1-2)Man(a1-3)[Gal(b1-3)[Fuc(a1-4)]GlcNAc(b1-2)Man(a1-6)]Man(b1-4)GlcNAc(b1-4)[Fuc(a1-6)]GlcNAc
# Outline: as §1
# [14] = molecular target: Gal(b1-3)[Fuc(a1-4)]GlcNAc(b1-3)Gal(b1-3)[Fuc(a1-4)]GlcNAc
# Outline: as §1
# [15] = molecular target: Gal(b1-3)[Fuc(a1-4)]GlcNAc(b1-3)Gal(b1-4)[Fuc(a1-3)]GlcNAc
# Outline: as §1
# [16] = molecular target: Gal(b1-3)[Fuc(a1-4)]GlcNAc(b1-6)GalNAc
# Outline: as §1
# [17] = molecular target: Gal(b1-3)[GlcNAc(b1-6)]GalNAc
# Outline: as §1
# [18] = molecular target: Gal(b1-3)[Neu5Ac(a2-6)]GalNAc
# Outline: as §1
# [19] = molecular target: Gal(b1-3)[Neu5Ac(a2-6)]GlcNAc(b1-4)Gal(b1-4)Glc
# Outline: as §1
# [20] = molecular target: Gal(b1-3)[Neu5Ac(b2-6)]GalNAc
# Outline: as §1
# Gal(b1-4)Gal = molecular target: Gal(b1-4)Gal
# Outline: as §1
# [21] = molecular target: Gal(b1-4)GalNAc(a1-3)[Fuc(a1-2)]Gal(b1-4)GlcNAc
# Outline: as §1
# [22] = molecular target: Gal(b1-4)GalNAc(b1-3)[Fuc(a1-2)]Gal(b1-4)GlcNAc
# Outline: as §1
# Gal(b1-4)Glc = molecular target: Gal(b1-4)Glc
# Outline: as §1
# Gal(b1-4)Glc6S = molecular target: Gal(b1-4)Glc6S
# Outline: as §1
# Gal(b1-4)GlcNAc = molecular target: Gal(b1-4)GlcNAc
# Outline: as §1
# [23] = molecular target: Gal(b1-4)GlcNAc(a1-6)Gal(b1-4)GlcNAc
# Outline: as §1
# Gal(b1-4)GlcNAc(b1-2)Man = molecular target: Gal(b1-4)GlcNAc(b1-2)Man
# Outline: as §1
# [24] = molecular target: Gal(b1-4)GlcNAc(b1-2)Man(a1-3)Man(b1-4)GlcNAc(b1-4)GlcNAc
# Outline: as §1
# [25] = molecular target: Gal(b1-4)GlcNAc(b1-2)Man(a1-3)[Gal(b1-4)GlcNAc(b1-2)Man(a1-6)]Man(b1-4)GlcNAc(b1-4)GlcNAc
# Outline: as §1
# [26] = molecular target: Gal(b1-4)GlcNAc(b1-2)Man(a1-3)[Gal(b1-4)GlcNAc(b1-2)Man(a1-6)]Man(b1-4)GlcNAc(b1-4)[Fuc(a1-6)]GlcNAc
# Outline: as §1
# [27] = molecular target: Gal(b1-4)GlcNAc(b1-2)Man(a1-3)[Gal(b1-4)GlcNAc(b1-2)Man(a1-6)][Gal(b1-4)GlcNAc(b1-4)]Man(b1-4)GlcNAc(b1-4)[Fuc(a1-6)]GlcNAc
# Outline: as §1
# [28] = molecular target: Gal(b1-4)GlcNAc(b1-2)Man(a1-3)[Gal(b1-4)GlcNAc(b1-2)Man(a1-6)][GlcNAc(b1-4)]Man(b1-4)GlcNAc(b1-4)[Fuc(a1-6)]GlcNAc
# Outline: as §1
# [29] = molecular target: Gal(b1-4)GlcNAc(b1-2)Man(a1-3)[GlcNAc(b1-2)Man(a1-6)]Man(b1-4)GlcNAc(b1-4)GlcNAc
# Outline: as §1
# [30] = molecular target: Gal(b1-4)GlcNAc(b1-2)Man(a1-3)[GlcNAc(b1-4)][Gal(b1-4)GlcNAc(b1-2)Man(a1-6)]Man(b1-4)GlcNAc(b1-4)GlcNAc
# Outline: as §1
# [31] = molecular target: Gal(b1-4)GlcNAc(b1-2)Man(a1-3)[Man(a1-6)]Man(b1-4)GlcNAc(b1-4)GlcNAc
# Outline: as §1
# [32] = molecular target: Gal(b1-4)GlcNAc(b1-2)Man(a1-6)Man(b1-4)GlcNAc(b1-4)GlcNAc
# Outline: as §1
binder,measurement,setting,value
B1,glycan array binding signal (z-score),[1],0.178
same,glycan array binding signal (z-score),[2],1.47
same,glycan array binding signal (z-score),[3],-0.031
same,glycan array binding signal (z-score),[4],-0.129
same,glycan array binding signal (z-score),[5],-0.548
same,glycan array binding signal (z-score),[6],-0.06
same,glycan array binding signal (z-score),[7],0.432
same,glycan array binding signal (z-score),[8],0.319
same,glycan array binding signal (z-score),[9],-0.027
same,glycan array binding signal (z-score),[10],0.021
same,glycan array binding signal (z-score),Gal(b1-3)GlcNAc6S,-0.22
same,glycan array binding signal (z-score),[11],-0.425
same,glycan array binding signal (z-score),[12],0.122
same,glycan array binding signal (z-score),[13],0.086
same,glycan array binding signal (z-score),[14],-0.36
same,glycan array binding signal (z-score),[15],0.68
same,glycan array binding signal (z-score),[16],-0.068
same,glycan array binding signal (z-score),[17],-0.271
same,glycan array binding signal (z-score),[18],-0.403
same,glycan array binding signal (z-score),[19],0.133
same,glycan array binding signal (z-score),[20],0.583
same,glycan array binding signal (z-score),Gal(b1-4)Gal,-0.471
same,glycan array binding signal (z-score),[21],-0.159
same,glycan array binding signal (z-score),[22],0.059
same,glycan array binding signal (z-score),Gal(b1-4)Glc,0.03
same,glycan array binding signal (z-score),Gal(b1-4)Glc6S,0.058
same,glycan array binding signal (z-score),Gal(b1-4)GlcNAc,-0.108
same,glycan array binding signal (z-score),[23],-0.061
same,glycan array binding signal (z-score),Gal(b1-4)GlcNAc(b1-2)Man,-0.404
same,glycan array binding signal (z-score),[24],0.131
same,glycan array binding signal (z-score),[25],-0.534
same,glycan array binding signal (z-score),[26],0.069
same,glycan array binding signal (z-score),[27],-0.002
same,glycan array binding signal (z-score),[28],0.294
same,glycan array binding signal (z-score),[29],0.112
same,glycan array binding signal (z-score),[30],-0.757
same,glycan array binding signal (z-score),[31],0.022
same,glycan array binding signal (z-score),[32],-0.281

# Fetched one by one from above (three):
binder,measurement,setting,value
B1,glycan array binding signal (z-score),Gal(b1-4)Glc,0.03
same,glycan array binding signal (z-score),[24],0.131
same,glycan array binding signal (z-score),[32],-0.281
